The values that follow come from PMC4558130.

Chains of the proteins cited; added tags and fusions are not shown.
UniProt Q04206: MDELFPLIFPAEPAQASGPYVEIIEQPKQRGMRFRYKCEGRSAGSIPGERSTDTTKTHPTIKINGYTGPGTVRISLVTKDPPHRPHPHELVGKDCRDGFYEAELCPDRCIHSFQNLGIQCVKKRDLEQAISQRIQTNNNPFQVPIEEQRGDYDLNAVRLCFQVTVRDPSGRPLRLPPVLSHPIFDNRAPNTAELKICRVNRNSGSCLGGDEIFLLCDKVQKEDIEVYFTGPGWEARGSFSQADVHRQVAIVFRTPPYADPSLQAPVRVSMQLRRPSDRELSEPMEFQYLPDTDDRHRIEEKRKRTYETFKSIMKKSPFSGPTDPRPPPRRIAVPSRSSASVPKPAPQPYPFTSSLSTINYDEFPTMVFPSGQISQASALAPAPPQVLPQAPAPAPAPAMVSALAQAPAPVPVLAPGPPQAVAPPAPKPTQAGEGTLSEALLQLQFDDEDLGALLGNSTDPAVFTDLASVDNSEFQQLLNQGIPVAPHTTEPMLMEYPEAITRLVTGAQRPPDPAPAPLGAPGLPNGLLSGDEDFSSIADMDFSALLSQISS

These are yes or no findings as the source states them, for the method shown. In cells and extracts the contact can be indirect. A yes stands for co-enrichment or nearness to the bait. Other partners may have been found. Where a sequence is shown, tags or fusion partners need not be part of it.

The target in this assay is T1, RRAD-Flag (wild type) (human) (UniProt P55042).
T1 sequence: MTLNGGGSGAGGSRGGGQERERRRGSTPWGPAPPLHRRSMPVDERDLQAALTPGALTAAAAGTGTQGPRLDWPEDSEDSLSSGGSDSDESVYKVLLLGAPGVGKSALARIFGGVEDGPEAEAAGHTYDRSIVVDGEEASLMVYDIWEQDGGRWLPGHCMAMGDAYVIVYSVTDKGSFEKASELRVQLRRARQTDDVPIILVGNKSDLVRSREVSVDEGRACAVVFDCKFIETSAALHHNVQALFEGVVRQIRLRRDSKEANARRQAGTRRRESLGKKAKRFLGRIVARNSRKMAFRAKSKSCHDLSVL
Briefly: affinity purification with mass spectrometry; RRAD-Flag precipitated from H1299-RRAD cells with anti-Flag (M2) beads, eluted with 0.1M glycine, SDS-PAGE, LC-MS/MS; H1299-con cells as control.

Take “endogenous p65 (from UniProt Q04206 1-551)”: the binding entry is “binds”.
